HELM strings list residues between dots; [ac] is acetyl, [am] amide, other brackets name non-standard units.
Experiment: general procedure: Fmoc solid-phase peptide synthesis; Rink Amide MBHA; HATU / N,N-diisopropylethylamine (2,4,6-collidine for Cys and chloroacetic acid)
Details: whole synthesis, scale 0.2 mmol, TFA salt

With “PEPTIDE1{[CH2CO].Y.[MeAla].N.P.H.L.[Hyp].W.S.[Trp(Me)].[MeNle].[MeNle].[Orn].C.G.[am]}$PEPTIDE1,PEPTIDE1,1:R3-15:R3$$$V2.0” the isolated mass was 70 mg and the isolated yield was 18%.
